{
  "source": "paper PMC12196278",
  "about": "“Targeting Neuronal Nitric Oxide Synthase (nNOS) as a Novel Approach to Enhancing the Anti-Melanoma Activity of Immune Checkpoint Inhibitors” (Pharmaceutics, 2025)",
  "test_system": "A375 cells",
  "assay": "NanoString nCounter PanCancer IO 360 gene expression profiling",
  "assay_type": "cell-based, human",
  "description": "After treatment, the total RNA samples were collected from A375 cells using an RNeasy Mini Kit (#74104; Qiagen, Hilden, Germany) and stored at −80 °C prior to analysis. The nCounter PanCancer IO 360 Panel and nCounter Pro Analysis System (NanoString, Seattle, WA, USA) were used to quantify gene expression changes in 770 genes implicated in immune-oncological processes. The transcriptomic data were analyzed using ROSALIND online platform (https://www.rosalind.bio/, San Diego, CA, USA).\n(b) Comparing IFN-γ treatment to control. (c) Comparing the combination treatment to IFN-γ alone. […] All the treatments were independently repeated three times. […] The analysis was based on the expression changes of genes involved in each specific pathway, with a higher score signifying a greater probability of pathway involvement.",
  "key": {"[1]": {"conditions": "HH044 54 h vs control, p < 0.05"}, "[2]": {"conditions": "HH044 cotreatment with IFN-γ vs IFN-γ alone, p < 0.05"}, "[3]": {"conditions": "cotreatment HH044 and IFN-γ (250 units/mL) vs IFN-γ alone"}},
  "data": [
    {"smiles": "N=C(Nc1ccc(CCNCc2cccc(NC(=N)c3cccs3)c2)cc1)c1cccs1", "note": "[HH044]", "values": [
      {"measurement": "Significance Score, Angiogenesis", "setting": "HH044 20 μM, 54 h, vs control", "value": 1.7702},
      {"measurement": "Significance Score, Hedgehog signaling", "setting": "HH044 20 μM, 54 h, vs control", "value": 2.1423},
      {"measurement": "Significance Score, Hypoxia", "setting": "HH044 20 μM, 54 h, vs control", "value": 1.5394},
      {"measurement": "Significance Score, Lymphoid compartment", "setting": "HH044 20 μM, 54 h, vs control", "value": 1.6172},
      {"measurement": "Significance Score, Matrix remodeling and metastasis", "setting": "HH044 20 μM, 54 h, vs control", "value": 1.94},
      {"measurement": "Significance Score, NF-kappaB signaling", "setting": "HH044 20 μM, 54 h, vs control", "value": 1.6256},
      {"measurement": "Significance Score, P13K-Akt", "setting": "HH044 20 μM, 54 h, vs control", "value": 1.5824},
      {"measurement": "Significance Score, TGF-beta signaling", "setting": "HH044 20 μM, 54 h, vs control", "value": 1.8043},
      {"measurement": "Significance Score, Wnt signaling", "setting": "HH044 20 μM, 54 h, vs control", "value": 2.2673},
      {"measurement": "genes downregulated", "setting": "[1]", "value": 30, "unit": "genes"},
      {"measurement": "genes statistically significantly upregulated", "setting": "[1]", "value": 18, "unit": "genes"},
      {"measurement": "genes downregulated", "setting": "[2]", "value": 21, "unit": "genes"},
      {"measurement": "genes upregulated", "setting": "[2]", "value": 16, "unit": "genes"},
      {"measurement": "Significance Score, Cytokine and chemokine signaling", "setting": "[3]", "value": 1.426},
      {"measurement": "Significance Score, Hypoxia", "setting": "[3]", "value": 1.5236},
      {"measurement": "Significance Score, JAK-STAT signaling", "setting": "[3]", "value": 1.4508},
      {"measurement": "Significance Score, Matrix remodeling and metastasis", "setting": "[3]", "value": 1.6136},
      {"measurement": "Significance Score, Metabolic stress", "setting": "[3]", "value": 1.4603},
      {"measurement": "Significance Score, Notch signaling", "setting": "[3]", "value": 1.7019},
      {"measurement": "Significance Score, P13K-Akt", "setting": "[3]", "value": 1.6044}
    ]}
  ]
}
